From the supplement of paper PMC10338343 come the findings set out here.

± gives the standard deviation. The list shows a part of the results, in another mix than the full data. Many of these values have a large error. The list shows a part of the results.

Assay [1] deals with MILI (PIWIL2) piRISC loaded with L1MC piRNA (26 nt). The assay can be described thus: pre-steady-state target cleavage rate (min^-1); higher = faster piRNA-guided slicing of the target. The note with it: guide: L1MC piRNA 5'p-UAACUAAAUACUAUGCAAGCUGUAGG
The procedure, abridged:
(§1)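 At 33 °C in HEPES–potassium acetate buffer, a transcribed, DNA-blocked target RNA library […] was exposed for 0–8 or 0–960 min to 1 nM active affinity-purified piRISC carrying a single synthetic guide, with or without 500 nM GTSF1 partner protein. Uncleaved targets were sequenced and normalised to depth and to weakly complementary targets. With three trials pooled and k3 capped at 0.0001 min^-1, a burst-and-steady-state fit produced the pre-steady-state cleavage rate.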

The subject of assay [2] is EfPiwi piRISC loaded with L1MC piRNA (26 nt). Nature of the assay: pre-steady-state target cleavage rate (min^-1); guide: L1MC piRNA 5'p-UAACUAAAUACUAUGCAAGCUGUAGG; MIWI and MILI are mouse PIWI proteins and EfPiwi is from a freshwater sponge; tags in brackets are library labels; higher = faster piRNA-guided slicing of the target. The procedure, abridged:
as §1

[3] abbreviates: auxiliary factor: 500 nM mouse GTSF1.
[4] abbreviates: auxiliary factor: none (no GTSF1).
[5] abbreviates: auxiliary factor: 500 nM Ephydatia muelleri Gtsf1.
The mark [6] stands for this setting: auxiliary factor: none (no Gtsf1).

UCCUGGAACUGCUUGCAUAGUAUUUACUUA: the “pre-steady-state target cleavage rate” value in assay [1] (setting [3]) is 0.0984 ± 0.027; in assay [1] (setting [4]), 0.00292 ± 0.0023; in assay [2] (setting [5]), 0.00246 ± 0.0038; in assay [2] (setting [6]) it was 0.000985 ± 0.0089.
In the case of UCCUGGUACAGCUUGCAUAGUAUUUAGUUUA, the “pre-steady-state target cleavage rate” value in assay [1] (setting [3]) worked out at 0.375 ± 0.028; in assay [1] (setting [4]), 0.0152 ± 0.005; in assay [2] (setting [5]) it was 0.0765 ± 0.024; in assay [2] (setting [6]), 0.00213 ± 0.012.
With UCCUGGAUGUGCUUGCAUAGUAUUUACUAA, the “pre-steady-state target cleavage rate” value in assay [1] (setting [3]) amounted to 0.00483 ± 0.0049; in assay [1] (setting [4]), 0.000836 ± 0.0065; in assay [2] (setting [5]), 0.146 ± 0.073; in assay [2] (setting [6]), 0.000975 ± 0.0098.
As to UCCUGGAUGUGCUUGCAUAGUAAUUACUUA, the “pre-steady-state target cleavage rate” value in assay [1] (setting [3]) was 0.00537 ± 0.0033; in assay [1] (setting [4]), 0.000738 ± 0.0095; in assay [2] (setting [5]), 0.00173 ± 0.0042; in assay [2] (setting [6]), 0.000264 ± 0.026.
Consider UCCUGGAUGUGCUUGCAUAGUAUUGAGUUA, for which the “pre-steady-state target cleavage rate” value in assay [1] (setting [3]) was 0.0612 ± 0.019; in assay [1] (setting [4]), 0.00196 ± 0.0044; in assay [2] (setting [5]), 0.00273 ± 0.0022; in assay [2] (setting [6]), 0.000381 ± 0.029.
The like results for UCCUGGAACAGCUUGCAUAGAAUUUAGUUA were, in that order, 0.0554 ± 0.01, 0.00299 ± 0.0027, 0.0051 ± 0.0017 and 0.00151 ± 0.0048.
The corresponding values for UCCUGGAUGUCGUAGCAUAGAAUUUAGUUA are 0.0013 ± 0.006, 0.000766 ± 0.0081, 0.000277 ± 0.0098 and 0.000415 ± 0.017.
With UCCUGGAACAGCAUGCAUACUAUUUAGUUA, the “pre-steady-state target cleavage rate” value in assay [1] (setting [3]) was found to be 0.0727 ± 0.0093; in assay [1] (setting [4]), 0.00273 ± 0.0026; in assay [2] (setting [5]), 0.00762 ± 0.0026; in assay [2] (setting [6]), 0.000809 ± 0.011.
As to UCCUGGUACAGCUUGCAUAGUGAUUUAGUUA, the “pre-steady-state target cleavage rate” value in assay [1] (setting [3]) turned out to be 0.0336 ± 0.01; in assay [1] (setting [4]), 0.00917 ± 0.0038; in assay [2] (setting [5]) it was 0.000852 ± 0.0071; in assay [2] (setting [6]), 0.00093 ± 0.012.
Turning to UCCUGGAUGAGCUUGCAUAGUAUUUAGCUUA, the “pre-steady-state target cleavage rate” value in assay [1] (setting [3]) was found to be 0.104 ± 0.026; in assay [1] (setting [4]), 0.00163 ± 0.0051; in assay [2] (setting [5]), 0.00409 ± 0.0018; in assay [2] (setting [6]), 0.000673 ± 0.013.
With UCCUGGAACAGGUUGCAUAGUAUUUAGAUA, the “pre-steady-state target cleavage rate” value in assay [1] (setting [3]) was 0.136 ± 0.025; in assay [1] (setting [4]), 0.00245 ± 0.0031; in assay [2] (setting [5]), 0.00362 ± 0.0019; in assay [2] (setting [6]), 0.000263 ± 0.027.
As for UCCUGGAUGUCCAUGCAAAGUAUUUAGUUA, the “pre-steady-state target cleavage rate” value is 0.0101 ± 0.0043 in assay [1] (setting [3]), 0.00172 ± 0.005 in assay [1] (setting [4]), 0.000358 ± 0.0072 in assay [2] (setting [5]) and 0.000114 ± 0.034 in assay [2] (setting [6]).
Turning to UCCUGGAUGUCGUAGCAUUGUAUUUAGUUA, the “pre-steady-state target cleavage rate” value in assay [1] (setting [3]) came out at 0.00325 ± 0.0044; in assay [1] (setting [4]), 0.000524 ± 0.009; in assay [2] (setting [5]), 0.000173 ± 0.033; in assay [2] (setting [6]) it was 0.000358 ± 0.022.
For UCCUGGAUGUGCUUGGAUAGUAUUUAGUAA, the “pre-steady-state target cleavage rate” value is 0.117 ± 0.021 in assay [1] (setting [3]), 0.00233 ± 0.0032 in assay [1] (setting [4]), 0.00252 ± 0.0037 in assay [2] (setting [5]) and 0.000463 ± 0.024 in assay [2] (setting [6]).
As to UCCUCCUACAGCUUGCUUAGUAUUUACUUA, the “pre-steady-state target cleavage rate” value in assay [1] (setting [3]) turned out to be 0.179 ± 0.02; in assay [1] (setting [4]), 0.00341 ± 0.0022; in assay [2] (setting [5]), 0.00381 ± 0.003; in assay [2] (setting [6]), 0.000547 ± 0.0099.
The corresponding values for UCCUGGAUCAGCUUGCAUAGUAUUGUAGUUA are 0.176 ± 0.018, 0.00992 ± 0.0032, 0.00652 ± 0.0027 and 0.00172 ± 0.0059.
In the case of UCCUGGUACAGCUUCCUUAGUAUUUAGUUA, the “pre-steady-state target cleavage rate” value was 0.288 ± 0.052 in assay [1] (setting [3]), 0.00854 ± 0.0031 in assay [1] (setting [4]), 0.00137 ± 0.0038 in assay [2] (setting [5]) and 0.000447 ± 0.016 in assay [2] (setting [6]).
In the case of UCCUGCUACAGCAUGCAUAGUAUUAAGUUA, the “pre-steady-state target cleavage rate” value is 0.331 ± 0.043 in assay [1] (setting [3]), 0.00346 ± 0.0032 in assay [1] (setting [4]), 0.00828 ± 0.0024 in assay [2] (setting [5]) and 0.0022 ± 0.0065 in assay [2] (setting [6]).
The corresponding values for UCCUGGAUCAGCUUGCAAAGUAUAUAGUUA are 0.104 ± 0.012, 0.00771 ± 0.0027, 0.00171 ± 0.0054 and 0.000646 ± 0.013.
The corresponding values for UCCUGCUACAGCUUGCAAUGUAUUUAGUAA are 0.124 ± 0.023, 0.00251 ± 0.0029, 0.000794 ± 0.0036 and 0.000511 ± 0.012.
Take UCCUGCUACAGCUUGCAUAGUAUUUAGCUUA: the “pre-steady-state target cleavage rate” value in assay [1] (setting [3]) was determined as 0.161 ± 0.037; in assay [1] (setting [4]) it was 0.00134 ± 0.0056; in assay [2] (setting [5]), 0.00522 ± 0.0019; in assay [2] (setting [6]) it was 0.00057 ± 0.013.
The like results for UCCUGGAUGUGCUUGCAUAGUAUUUAGCUA were, in that order, 0.00234 ± 0.0063, 0.000401 ± 0.016, 0.00363 ± 0.0021 and 0.000457 ± 0.019.
